Measured values: the supplement of paper PMC12823440, “Inhibitors supercharge kinase turnover through native proteolytic circuits” (Nature, 2025)
The other results are listed elsewhere or left out. The calls rarely recur for the same compound in another form.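 Kinases were expressed as nanoluciferase fusions in K562 cells and luminescence was read every 4 h between 2 and 18 h as percent of control, DMSO set to 100% and a positive control to 0%. A time point counts as decreased when the signal drops significantly (2 sigma). The hit call is the authors' own, does not follow from the count of time points alone, and its rule is not shown.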

Protein sequences, listed by entry. Tags and fused reporters are not part of them. Lines headed by an entry give the natural chain unless they say otherwise; changes in a name come on top.
UniProt Q16288, whole entry, looked up: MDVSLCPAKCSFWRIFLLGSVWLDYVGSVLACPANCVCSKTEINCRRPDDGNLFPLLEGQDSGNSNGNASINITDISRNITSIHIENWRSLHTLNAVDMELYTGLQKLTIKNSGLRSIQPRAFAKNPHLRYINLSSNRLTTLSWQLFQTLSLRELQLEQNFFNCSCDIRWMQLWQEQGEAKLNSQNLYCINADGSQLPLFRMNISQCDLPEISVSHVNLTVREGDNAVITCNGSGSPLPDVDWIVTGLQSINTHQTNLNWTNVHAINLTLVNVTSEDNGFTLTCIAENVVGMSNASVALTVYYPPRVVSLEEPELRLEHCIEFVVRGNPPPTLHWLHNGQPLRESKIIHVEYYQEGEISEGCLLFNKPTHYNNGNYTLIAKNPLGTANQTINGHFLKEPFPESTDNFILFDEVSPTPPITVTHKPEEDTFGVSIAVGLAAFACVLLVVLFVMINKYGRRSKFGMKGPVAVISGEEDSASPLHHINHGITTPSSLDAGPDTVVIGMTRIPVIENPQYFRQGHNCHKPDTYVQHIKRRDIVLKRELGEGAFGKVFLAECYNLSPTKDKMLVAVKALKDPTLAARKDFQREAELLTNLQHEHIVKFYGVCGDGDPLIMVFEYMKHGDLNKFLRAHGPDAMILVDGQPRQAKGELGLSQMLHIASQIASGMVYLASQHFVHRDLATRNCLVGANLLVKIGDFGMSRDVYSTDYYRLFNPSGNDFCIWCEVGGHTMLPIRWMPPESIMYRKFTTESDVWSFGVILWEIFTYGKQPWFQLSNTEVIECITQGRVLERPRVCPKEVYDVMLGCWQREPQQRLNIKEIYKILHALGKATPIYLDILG
UniProt O96013: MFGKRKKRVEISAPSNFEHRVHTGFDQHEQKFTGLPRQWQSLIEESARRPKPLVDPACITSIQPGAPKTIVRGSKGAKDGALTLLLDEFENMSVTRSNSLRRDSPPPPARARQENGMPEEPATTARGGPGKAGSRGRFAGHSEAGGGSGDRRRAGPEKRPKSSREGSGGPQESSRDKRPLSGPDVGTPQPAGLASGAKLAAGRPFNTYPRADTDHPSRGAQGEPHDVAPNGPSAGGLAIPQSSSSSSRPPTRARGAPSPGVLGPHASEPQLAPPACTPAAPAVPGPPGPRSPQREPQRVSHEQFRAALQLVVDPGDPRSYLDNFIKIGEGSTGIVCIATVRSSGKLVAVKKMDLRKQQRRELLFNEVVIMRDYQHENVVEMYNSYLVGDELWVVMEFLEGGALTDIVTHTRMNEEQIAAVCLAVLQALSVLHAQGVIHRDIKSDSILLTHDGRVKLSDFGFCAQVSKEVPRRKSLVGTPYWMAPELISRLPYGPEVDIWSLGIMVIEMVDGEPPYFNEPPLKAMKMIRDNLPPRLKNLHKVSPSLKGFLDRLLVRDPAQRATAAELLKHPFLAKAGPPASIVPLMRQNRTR
UniProt Q96KB5: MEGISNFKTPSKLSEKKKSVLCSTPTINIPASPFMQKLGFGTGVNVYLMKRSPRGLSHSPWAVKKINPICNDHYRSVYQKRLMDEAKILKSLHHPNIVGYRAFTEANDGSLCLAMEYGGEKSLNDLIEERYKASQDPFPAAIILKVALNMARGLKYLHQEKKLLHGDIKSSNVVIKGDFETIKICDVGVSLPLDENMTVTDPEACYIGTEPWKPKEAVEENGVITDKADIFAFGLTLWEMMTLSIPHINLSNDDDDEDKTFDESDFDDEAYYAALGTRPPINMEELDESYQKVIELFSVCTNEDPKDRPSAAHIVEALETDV
UniProt P09619, whole entry: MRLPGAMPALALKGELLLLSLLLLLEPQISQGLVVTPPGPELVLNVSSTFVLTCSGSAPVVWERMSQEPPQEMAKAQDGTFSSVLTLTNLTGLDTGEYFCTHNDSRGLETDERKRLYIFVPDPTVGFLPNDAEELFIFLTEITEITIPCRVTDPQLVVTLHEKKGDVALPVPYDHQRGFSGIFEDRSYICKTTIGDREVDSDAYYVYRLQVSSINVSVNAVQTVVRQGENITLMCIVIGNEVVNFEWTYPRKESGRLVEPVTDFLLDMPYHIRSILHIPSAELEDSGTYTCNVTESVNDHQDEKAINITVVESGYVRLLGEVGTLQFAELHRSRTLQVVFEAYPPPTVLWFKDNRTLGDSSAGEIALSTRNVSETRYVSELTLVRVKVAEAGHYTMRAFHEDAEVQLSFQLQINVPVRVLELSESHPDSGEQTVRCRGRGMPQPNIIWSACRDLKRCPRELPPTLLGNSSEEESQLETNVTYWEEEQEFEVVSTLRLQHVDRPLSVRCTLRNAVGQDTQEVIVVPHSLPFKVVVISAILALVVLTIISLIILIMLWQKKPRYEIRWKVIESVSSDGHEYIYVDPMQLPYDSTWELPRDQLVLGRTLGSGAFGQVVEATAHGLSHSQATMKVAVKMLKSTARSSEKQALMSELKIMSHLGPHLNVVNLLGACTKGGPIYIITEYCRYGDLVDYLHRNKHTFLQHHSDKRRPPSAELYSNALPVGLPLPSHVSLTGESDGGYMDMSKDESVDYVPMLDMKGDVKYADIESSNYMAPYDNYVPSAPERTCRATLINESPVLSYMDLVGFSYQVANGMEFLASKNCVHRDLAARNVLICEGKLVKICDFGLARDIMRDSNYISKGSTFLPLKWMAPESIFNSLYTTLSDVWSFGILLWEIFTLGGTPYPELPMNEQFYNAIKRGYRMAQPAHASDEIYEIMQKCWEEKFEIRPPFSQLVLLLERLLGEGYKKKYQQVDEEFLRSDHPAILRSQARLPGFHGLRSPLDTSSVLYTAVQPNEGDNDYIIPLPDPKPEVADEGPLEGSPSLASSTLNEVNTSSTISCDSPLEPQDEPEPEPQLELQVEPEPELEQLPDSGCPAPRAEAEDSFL
UniProt Q15118, whole entry, looked up: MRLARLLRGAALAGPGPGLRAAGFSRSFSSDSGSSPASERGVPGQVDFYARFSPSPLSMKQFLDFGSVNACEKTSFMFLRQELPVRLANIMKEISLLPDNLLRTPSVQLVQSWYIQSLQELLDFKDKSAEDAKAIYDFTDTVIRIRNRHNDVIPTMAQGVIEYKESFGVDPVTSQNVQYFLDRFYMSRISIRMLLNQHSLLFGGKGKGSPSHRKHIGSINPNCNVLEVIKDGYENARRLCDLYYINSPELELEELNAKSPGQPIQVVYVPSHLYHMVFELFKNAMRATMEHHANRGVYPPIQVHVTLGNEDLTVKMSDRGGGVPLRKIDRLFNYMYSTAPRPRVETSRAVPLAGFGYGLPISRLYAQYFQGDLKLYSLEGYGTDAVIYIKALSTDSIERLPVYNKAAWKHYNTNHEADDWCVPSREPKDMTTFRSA
UniProt O15530: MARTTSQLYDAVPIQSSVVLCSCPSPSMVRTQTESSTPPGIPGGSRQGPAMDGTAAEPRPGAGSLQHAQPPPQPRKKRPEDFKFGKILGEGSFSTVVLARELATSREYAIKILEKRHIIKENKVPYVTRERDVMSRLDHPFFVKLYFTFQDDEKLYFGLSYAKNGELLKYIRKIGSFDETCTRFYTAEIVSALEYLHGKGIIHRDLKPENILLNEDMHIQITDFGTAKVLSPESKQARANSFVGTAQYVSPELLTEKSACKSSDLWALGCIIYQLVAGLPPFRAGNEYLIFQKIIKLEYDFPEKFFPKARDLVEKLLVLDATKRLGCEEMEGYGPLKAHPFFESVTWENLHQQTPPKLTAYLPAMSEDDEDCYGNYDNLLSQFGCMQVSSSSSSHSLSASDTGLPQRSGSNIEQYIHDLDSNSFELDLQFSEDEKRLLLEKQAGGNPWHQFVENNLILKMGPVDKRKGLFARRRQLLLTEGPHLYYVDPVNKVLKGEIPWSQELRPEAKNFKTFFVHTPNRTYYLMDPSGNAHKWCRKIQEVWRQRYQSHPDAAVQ
UniProt Q9UBF8: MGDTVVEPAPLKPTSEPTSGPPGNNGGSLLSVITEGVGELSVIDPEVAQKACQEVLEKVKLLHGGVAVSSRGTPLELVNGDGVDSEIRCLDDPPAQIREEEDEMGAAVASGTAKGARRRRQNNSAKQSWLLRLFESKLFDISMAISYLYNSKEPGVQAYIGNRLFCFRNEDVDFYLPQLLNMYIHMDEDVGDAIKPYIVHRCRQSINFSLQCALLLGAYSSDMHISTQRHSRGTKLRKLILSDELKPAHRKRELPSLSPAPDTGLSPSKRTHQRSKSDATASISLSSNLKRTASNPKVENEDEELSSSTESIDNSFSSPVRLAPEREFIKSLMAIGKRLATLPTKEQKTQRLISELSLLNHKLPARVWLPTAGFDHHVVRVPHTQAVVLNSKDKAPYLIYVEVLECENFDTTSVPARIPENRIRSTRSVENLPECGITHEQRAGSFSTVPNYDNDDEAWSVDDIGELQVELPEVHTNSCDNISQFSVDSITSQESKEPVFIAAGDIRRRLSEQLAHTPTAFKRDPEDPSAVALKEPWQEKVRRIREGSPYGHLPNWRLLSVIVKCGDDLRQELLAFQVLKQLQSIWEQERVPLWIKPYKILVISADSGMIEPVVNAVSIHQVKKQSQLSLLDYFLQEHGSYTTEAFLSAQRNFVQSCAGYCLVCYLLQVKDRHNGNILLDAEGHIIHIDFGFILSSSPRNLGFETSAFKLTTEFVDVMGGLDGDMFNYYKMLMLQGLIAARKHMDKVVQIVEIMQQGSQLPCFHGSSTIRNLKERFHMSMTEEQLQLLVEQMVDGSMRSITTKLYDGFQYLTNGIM
UniProt P53350, whole entry: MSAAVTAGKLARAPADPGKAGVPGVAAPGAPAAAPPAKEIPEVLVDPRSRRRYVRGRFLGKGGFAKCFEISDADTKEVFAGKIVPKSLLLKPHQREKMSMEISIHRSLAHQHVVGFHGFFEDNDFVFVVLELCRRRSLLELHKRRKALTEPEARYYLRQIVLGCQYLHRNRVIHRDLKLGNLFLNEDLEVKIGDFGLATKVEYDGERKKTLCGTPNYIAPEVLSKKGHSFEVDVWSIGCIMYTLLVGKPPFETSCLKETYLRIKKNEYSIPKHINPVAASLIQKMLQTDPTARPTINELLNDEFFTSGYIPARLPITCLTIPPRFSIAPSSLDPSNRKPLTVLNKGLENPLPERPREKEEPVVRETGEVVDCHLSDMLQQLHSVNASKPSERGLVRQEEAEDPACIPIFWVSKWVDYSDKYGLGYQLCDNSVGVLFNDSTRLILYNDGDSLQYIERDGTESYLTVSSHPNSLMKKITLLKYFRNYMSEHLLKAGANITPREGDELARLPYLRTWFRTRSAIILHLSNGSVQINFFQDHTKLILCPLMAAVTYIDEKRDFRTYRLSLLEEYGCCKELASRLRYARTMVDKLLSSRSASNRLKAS
UniProt Q13131: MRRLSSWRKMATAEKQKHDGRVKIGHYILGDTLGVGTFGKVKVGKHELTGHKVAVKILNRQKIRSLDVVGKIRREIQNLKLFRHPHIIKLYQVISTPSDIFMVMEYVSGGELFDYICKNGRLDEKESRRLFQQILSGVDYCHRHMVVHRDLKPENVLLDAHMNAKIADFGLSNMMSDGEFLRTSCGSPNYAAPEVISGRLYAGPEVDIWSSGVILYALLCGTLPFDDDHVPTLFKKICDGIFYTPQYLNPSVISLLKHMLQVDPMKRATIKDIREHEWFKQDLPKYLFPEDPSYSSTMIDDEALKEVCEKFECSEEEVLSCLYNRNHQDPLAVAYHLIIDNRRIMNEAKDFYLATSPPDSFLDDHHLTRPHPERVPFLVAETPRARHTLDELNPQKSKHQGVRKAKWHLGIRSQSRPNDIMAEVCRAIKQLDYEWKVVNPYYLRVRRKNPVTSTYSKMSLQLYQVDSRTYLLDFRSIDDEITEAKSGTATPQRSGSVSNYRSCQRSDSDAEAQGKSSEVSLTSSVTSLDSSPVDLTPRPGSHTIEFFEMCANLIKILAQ

Tests used:
Test in all cases: number of time points (of 5) at which kinase-Nluc abundance scored as decreased, DMSO-normalised (count); higher = more persistent destabilization
Conditions in all cases: K562; 2-18 h
[1] = target: NTRK3 (UniProt Q16288)
[2] = target: PAK4 (UniProt O96013)
[3] = target: PBK (UniProt Q96KB5)
[4] = target: PDGFRB (UniProt P09619)
[5] = target: PDK1 (UniProt Q15118)
[6] = target: PDPK1 (UniProt O15530)
[7] = target: PIK4CA (UniProt P42356)
[8] = target: PIK4CB (UniProt Q9UBF8)
[9] = target: PLK1 (UniProt P53350)
[10] = target: PRKAA1 (UniProt Q13131)

Measured: number of time points

C=CC(=O)Nc1cccc(Oc2nc(Nc3ccc(N4CCN(C)CC4)cc3OC)ncc2Cl)c1 (10 µM)
0: all assays above

O=C1CCC(N2C(=O)c3cccc(OCCCCCOc4ccc(CC(=O)Nc5cc(C6CCC6)[nH]n5)cc4)c3C2=O)C(=O)N1 (stereo not given) [PROTAC CDK9 Degrader-1] (10 µM)
0: all assays above

CC(C)c1cc2c(c(O)c1O)[C@@]13CCCC(C)(C)[C@@H]1C[C@@H]2OC3=O [Carnosol] (2.5 µM)
0: all assays above

CN1CCC(Nc2nc(Nc3ccc(Oc4ccccc4)cc3)c3c(=O)[nH]cc(Br)c3n2)CC1 (2.5 µM)
0: all assays above

CCc1cc(Nc2nccc(-c3c(-c4ccc(OC)c(C(=O)Nc5c(F)cccc5F)c4)nc4ccccn34)n2)c(OC)cc1N1CCC(N2CCN(S(C)(=O)=O)CC2)CC1 (2.5 µM)
4: [1]
0: all other assays above

CN1C(=O)N[C@@H](Cc2c[nH]c3c(Cl)cccc23)C1=O [Necrostatin 2 (S enantiomer)] (10 µM)
0: all assays above

O=C(NC[C@H](O)CO)c1ccncc1Nc1ccc(I)cc1F [Pimasertib] (10 µM)
1: [6]
2: [8]
0: all other assays above

Cc1cc2c(F)c(Oc3ncnn4cc(OC[C@@H](C)OC(=O)[C@H](C)N)c(C)c34)ccc2[nH]1 [Brivanib (alaninate)] (10 µM)
0: all assays above

COc1cc2c(cc1OC)[C@@H]1C(=O)c3ccc4c(c3O[C@@H]1CO2)C=CC(C)(C)O4 [Deguelin] (10 µM)
0: all assays above

Cc1nc(NC(=O)N2CCC[C@H]2C(N)=O)sc1-c1ccnc(C(C)(C)C(F)(F)F)c1 [Alpelisib] (2.5 µM)
0: all assays above

O=CN1CCN(c2ccc(C=C3C(=O)Nc4ccccc43)cc2)CC1 (10 µM)
0: all assays above

CCOC(=O)c1c(C)[nH]c(C=C2C(=O)Nc3ccccc32)c1C (10 µM)
0: all assays above

CC(C)(C)S(=O)(=O)c1cc2c(Nc3ccc4scnc4c3)ncnc2cc1OCCOP(=O)(O)O (2 µM)
0: all assays above

COc1cc(N2CCC(N3CCN(C)CC3)CC2)ccc1Nc1ncnc(Nc2ccccc2S(=O)(=O)C(C)C)n1 (10 µM)
0: all assays above

Cc1ncc(-c2cc(F)c(O)c(F)c2)cc1-c1cc(F)c(O)c(F)c1 (10 µM)
0: all assays above

COc1ccc(Br)c(C=O)c1O [6-Bromo-2-hydroxy-3-methoxybenzaldehyde] (10 µM)
0: all assays above

CC(=O)O[C@@H]1[C@@H](OC(C)=O)[C@@H](O)[C@H](Oc2c(-c3ccc(O)cc3)oc3cc(O)cc(O)c3c2=O)O[C@H]1C (10 µM)
0: all assays above

CN(C)CCn1cc2cc(NC(=O)c3cccc(C(F)(F)F)n3)c(C(C)(C)O)cc2n1 (10 µM)
0: all assays above

NCCNS(=O)(=O)c1ccc(Cl)c2ccncc12 [CKI-7 (free base)] (10 µM)
0: all assays above

Reprinted from the results shown, 2 compounds:
COc1ccc(Br)c(C=O)c1O [6-Bromo-2-hydroxy-3-methoxybenzaldehyde] (10 µM)
0: all assays above

CC(=O)O[C@@H]1[C@@H](OC(C)=O)[C@@H](O)[C@H](Oc2c(-c3ccc(O)cc3)oc3cc(O)cc(O)c3c2=O)O[C@H]1C (10 µM)
0: all assays above

Additional structures.

Fc1ccc(Cl)cc1-c1nc(Nc2ccncc2)c2nccnc2n1 (10 µM)
0: all assays above

Nc1ccc(-c2cccc(C(=O)Nc3cnc4nc(N5CCOCC5)oc4c3)n2)cn1 (10 µM)
0: all assays above

CN1CCN(c2ccc(-c3ccncc3-c3cc(F)c(O)c(F)c3)cc2)CC1 (10 µM)
0: all assays above

COc1cc2ncnc(Nc3cc(Br)c(O)c(Br)c3)c2cc1OC (2.5 µM)
0: all assays above

COCCNc1cc(NC(=O)N2CCCc3cc(CN4CCOCC4=O)c(C=O)nc32)ncc1C#N (10 µM)
0: all assays above

Cc1cnc(Cl)nc1-c1ccc(N(Cc2ccc(CNC(=O)C(F)F)cc2)C(=O)c2ccc(O)cc2O)cc1 (10 µM)
0: all assays above

NC(=O)c1cnc(N[C@@H]2CCCC[C@@H]2N)nc1Nc1cccc(-n2nccn2)c1 (2.5 µM)
0: all assays above

COc1cc2nc(NC3CC3)nc(NC3CCN(C(C)C)CC3)c2cc1OC (10 µM)
0: all assays above

CN(C)C(=O)c1cc2cnc(Nc3ccc(N4CCN(CCCCNC(=O)COc5cccc6c5C(=O)N(C5CCC(=O)NC5=O)C6=O)CC4)cn3)nc2n1C1CCCC1 (stereo not given) (10 µM)
0: all assays above

CC(C)Cn1ncc2cc(Oc3ccc(F)cc3F)c(C(=O)NCCN(C)C)cc21 [p38α inhibitor 1] (10 µM)
0: all assays above

Cc1n[nH]c2ncc(C(=O)N3CCC[C@H]3c3ccc(Cl)cc3)cc12 (10 µM)
0: all assays above

O=C(Nc1ccc(F)cc1F)C(NC(=S)Nc1cc(C(F)(F)F)cc(C(F)(F)F)c1)c1ccccc1 (racemic) (2.5 µM)
0: all assays above

CCCCC(=O)OCC(=O)[C@]1(O)Cc2c(O)c3c(c(O)c2[C@@H](O[C@H]2C[C@H](NC(=O)C(F)(F)F)[C@H](O)[C@H](C)O2)C1)C(=O)c1c(OC)cccc1C3=O [Valrubicin] (10 µM)
0: all assays above

CN(C)c1cc[n+](Cc2ccc(OCCOc3ccc(C[n+]4ccc(N(C)C)cc4)cc3)cc2)cc1 (10 µM)
0: all assays above

O=c1c(O)c(-c2ccc(O)c(O)c2)oc2cc(O)c(O)c(O)c12 [Quercetagetin] (10 µM)
0: all assays above

CC(=O)O/N=C1/C(c2c(O)[nH]c3cc(Br)ccc23)=Nc2ccccc21 [BIO-acetoxime] (10 µM)
0: all assays above

COc1ccc2nc3ccc(OC)cc3c(SCCCN)c2c1 (10 µM)
2: [5]
3: [1] | [6] | [8] | [10]
0: all other assays above
